# Data published in paper PMC2811323 (The Journal of neuroscience : the official journal of the …, 2009).
# Several values for one entry are separate records, joined by “and”; a condition that tells them apart may be missing. Identical values can stand only once. Like-named read-outs stand apart in the source and are kept apart here.
# Assays:
# [1] = system: rat mPFC layer V pyramidal cells; assay: Inward; format: cell-based
# [2] = system: rat mPFC layer V pyramidal cells; assay: Spontaneous EPSCs in acute rat brain slices; format: cell-based
# [3] = system: mPFC layer V neurons, wildtype (WT) mice; assay: Spontaneous EPSCs in slices from wild-type mice; format: cell-based, mouse
# [4] = system: PC12 N21 cells stably expressing human Swedish mutation APP and human M1 muscarinic receptor; conditions: 30 μM BQCA with 50 nM CCh, 4 hr
smiles,measurement,setting,value
"COc1ccc(Cn2cc(C(=O)[O-])c(=O)c3ccccc32)cc1.[Na+] [BQCA, Sodium 1-(4-methoxybenzyl)-4-oxo-1,4-dihydroquinoline-3-carboxylate]",Inward current (change in holding current),[1],55.07 ± 6.28 pA
same,Inward current (change in holding current),"[1]; 10 μM applied alone, −70 mV, 1 μM TTX",21.54 ± 2.42 pA
same,sEPSC amplitude,[2],136.0 ± 15.3 % control and 108.3 ± 6.6 % control
same,sEPSC amplitude,[3],97.3 ± 11.3 % control and 137.2 ± 16.7 % control
same,APPsα levels in conditioned media,[4],244 % of vehicle-treated cells
same,CTFα (C83) in cell extracts,[4],245 % of vehicle
same,Decrease in the secretion of Aβ40 peptide,[4],30%
